Values are the deposited “Percent Effect”, in %. The record does not define 0% and 100%; most values in the screen are far below 50% and negative numbers occur (in some assays of this library far below -100). Compounds were drawn at random from those tested, without regard to their results.

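Assay of Toxoplasma gondii numbers, read through their beta-galactosidase reporter with a colour substrate. Compounds at 50 µM. The record gives no direction; the compounds picked for IC50 retests had high values, so higher reads as fewer parasites. About 18,000 compounds were tested under these conditions; 0.94% (about 170) showed 50% or more at least once.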

Result for CC(Nc1cccc2c1CCCC2)C(=O)NC(N)=O (centres unmarked) was -0.5429%.
Result for O=C1CC(c2cccc(Cl)c2)CC(=O)N1 was -0.2705%.
Result for COc1cccc(C(=O)Nc2cnc(O)nc2O)c1 was -6.74%.
Result for NCC(=O)Nc1ccc(Cl)c(F)c1 was 5.935%.
Result for CN(C)c1ccc(-c2[nH][nH]c(=O)c2CCCN)cc1 was 4.295%.
Result for CCC(CO)CC(F)F (centres unmarked) was 2.921%.
Result for COCCN(C(=O)C1CCCO1)c1ccc(C#N)cc1 (centres unmarked) was 9.641%.
Result for COCCC(=O)NC(c1ccc(F)cc1)C(F)(F)F (centres unmarked) was -3.441%.
Result for O=S(=O)(CCNCc1cc[nH]c1)N1CCSCC1 was -24.04%.
Result for NCc1cc(Cl)c2c(c1)OCO2 was 2.125%.
Result for CCN(CC)C(=O)CCn1ccccc1=O was -4.005%.
Result for O=C(NCCCn1ncc2ccccc21)C1CC1 was -6.66%.
Result for c1ccc(NCc2c[nH]nn2)cc1 was 1.798%.
Result for COc1cccc(-c2ncc(CN)s2)c1 was 17.54%.
Result for COCC1CCCCNC1 (centres unmarked) was -8.034%.
Result for CC(=O)N1CCC(NC(=O)Cc2ccccc2C)CC1 was -3.108%.
Result for CCC=C(C)C(=O)NCC(C)(C)N1CC[S+]([O-])CC1 was 4.199%.
Result for Cc1noc(CNC(CCO)C(C)C)n1 (centres unmarked) was 1.159%.
Result for CC(=O)c1cccc(C(=O)N2C[C@H](C3CC3)[C@@H](N)C2)c1 was 1.484%.
Result for c1cncc(CN2CCN(Cc3cccnc3)CC2)c1 was 12.71%.
Result for CC(N)CCS(C)(=O)=O (centres unmarked) was 9.928%.
Result for O=C(NCCn1ccnc1)NCC1CCOC1 (centres unmarked) was -3.631%.
Result for CNS(=O)(=O)c1cccc(NC(=O)NCC(F)(F)F)c1 was -11.48%.
Result for Cc1nn(C)c(C)c1C(C)NC(=O)c1cccnc1 (centres unmarked) was 3.271%.
Result for Cc1ccnc(NC(C)c2ccc(S(N)(=O)=O)cc2)c1 (centres unmarked) was 2.147%.
Result for NC(=O)CN1C(=O)CC2(CCCCC2)CC1=O was 2.869%.
Result for COCCNC(=O)C(C)Cn1cc(Br)cn1 (centres unmarked) was -15.78%.
Result for O=C(NCc1ccncc1)Nc1ccc2c(c1)OCO2 was -13.63%.
Result for CC(=O)N1CCCn2nc(-c3cccc(F)c3)cc2C1 was 6.604%.
Result for Cc1cc(C)n(CCC(=O)NC2C=CS(=O)(=O)C2)n1 (centres unmarked) was -3.643%.
Result for O=C(c1ccc(N2CCCCCC2)nc1)N1CC(O)C1 was 9.333%.
Result for CC(C)(C)OC(=O)CCOCCO was -7.36%.
Result for CCN(CC)C(=O)COC(=O)c1ccc(O)cc1O was 12.8%.
Result for CCC(=O)Nc1ccc2c(c1)C(=O)N(CC(C)C)C2=O was 10.85%.
Result for COCCN(C)CCCNC(=O)c1cnccn1 was 11.15%.
Result for COc1ncccc1C(=O)NC(C)Cn1cccn1 (centres unmarked) was -6.225%.
Result for Nc1nnc(CCCNC(=O)c2cnc[nH]2)s1 was 7.949%.
Result for CC(=O)c1cnccn1 was -10.21%.
Result for CCC(=O)Nc1ccccc1C(=O)N1CCN(C)CC1 was -2.22%.
Result for NC(=O)C1CCCN(c2nccc(C(F)(F)F)n2)C1 (centres unmarked) was -13.02%.
Result for CCc1ccc(CN(C)CCC(=O)NC2CC2)nc1 was 1.953%.
Result for O=C(Nc1cnccn1)c1ncccc1O was 25.98%.
Result for CC(C(N)=O)N1CCNCC1 (centres unmarked) was 3.391%.
Result for C[C@@H]1CN(C(=O)CCc2cnccn2)C[C@]1(C)O was 1.131%.
Result for CC(CN)Cn1cccn1 (centres unmarked) was -7.482%.
Result for CC(=O)c1cccc(-n2nnnc2SCC#N)c1 was -3.787%.

Once more, the final 4:

CC(C(N)=O)N1CCNCC1 (centres unmarked) read 3.391%.
C[C@@H]1CN(C(=O)CCc2cnccn2)C[C@]1(C)O read 1.131%.
CC(CN)Cn1cccn1 (centres unmarked) read -7.482%.
CC(=O)c1cccc(-n2nnnc2SCC#N)c1 read -3.787%.

Source: ChEMBL document CHEMBL3988442, “University of Dundee, Small-Polar-MMV Screening Library” (2021).